Laboratory results taken from patent US5834244A, “Factor VIIa inhibitors from Kunitz domain proteins” (Genentech, Inc., priority 1995, dated 1998).
Part of at least one peptide drawing is inferred or uncertain, most often the ends. Positions of bridges follow the written chain, without caps; N, C: chain ends. No end group written: not given here.

Columns and labels:
normal human plasma [1] = experiment: Prothrombin time (PT) assay, clotting initiated by TF membranes; assay type: biochemical; conditions: 40 μM inhibitor, uninhibited 30 s
rabbit plasma [2] = experiment: PT clotting time in rabbit plasma; assay type: biochemical; conditions: 50 μM
Protocol: (§1) Samples of rabbit plasma were assayed using an MLA 800 coagulometer and Dade reagents. Actin FS® was the activator in the APTT assay. Rabbit Thromboplastin with Ca++ was used for the PT assays; the rabbit thromboplastin was diluted two-fold. All mutant inhibitors tested prolonged clotting by at least one fold. […] A greater than 10 fold prolongation of the clotting time at 40μM was observed.

normal human plasma [3] = experiment: Activated partial thromboplastin time (APTT) assay, initiated by ellagic acid; assay type: biochemical; conditions: 40 μM inhibitor, uninhibited 31 s
Protocol: For the activated partial thromboplastin time (APTT) assays, the activation time was set at 120 sec and acquisition time at 300 to 600 sec depending on the expected outcome of the assay. Citrated normal human plasma and inhibitor were incubated together. The sample (plasma and inhibitor) and activator (Instrumentation Laboratories Ellagic acid/Phospholipid mix Test Reagent) were automatically pipetted and incubated together for 2 min at 37° C., then CaCl2 was added and clotting time determined by means of optical assessment. The total incubation time of inhibitor with plasma was ca. 3 min before addition of activator, and 5 min before addition of CaCl2.

rabbit plasma [4] = experiment: APTT clotting time in rabbit plasma; assay type: biochemical; conditions: 50 μM
Protocol: as §1

[5] = tested on: Male New Zealand white rabbits; experiment: Rabbit deep medial injury model (carotid artery patency, thrombus weight); assay type: in vivo
Protocol: Male New Zealand white rabbits (~4 kg) were anesthetized to surgical anesthesia plane with an IM injection of Ketamine / Xylaxine. The rabbits were placed supine on a restraining board, warmed to 37° C., and the neck and inner thigh area shaved. Teflon catheters were replaced in a marginal ear vein and femoral artery for drug delivery and sample collection respectively. Prior to treatment, blood samples were collected for coagulation tests (APTT and PT). Bleeding time was assessed from a cut made in the cuticle portion of a hind limb nail. Incisions were made in the neck region and the entire left common carotid artery and its branches were surgically isolated. An ultrasonic flow probe (Transonics®) was placed on the common carotid approximately 5 cm caudal to the common--internal bifurcation. After blood flow reached a stable baseline, drugs (saline or test compounds) were delivered via the marginal ear vein. A deflated embolectomy catheter (Fogarty®, 3F) was then introduced into the lumen of the common via an incision in the lingual branch. Blood flow through the artery was stopped briefly while the catheter was introduced and loosely secured with 2-0 silk tie at the incision site. After the catheter was in place and secure, blood flow was restored. The deflated balloon was advanced to within 2 mm of the flow probe and inflated with saline until resistance of the vessel wall was felt. The catheter was pulled back with a steady motion to the first branch and then deflated. This procedure was repeated a total of six times for each experimental animal, after which the catheter was removed. […] Over 40 minutes, blood samples were taken for APTT and PT measurements, cuticle bleeding times were assessed and blood flow through the carotid monitored. Duration of patency was defined as the total amount of time (maximum=40 minutes) that any measurable blood flow is detected in the artery. Patency rate refers to the percentage of animals tested who had carotid artery blood flow ≥5 minutes. At the end of the experiment the rabbit was euthanized and the carotid artery removed and opened. If any thrombus was present, it was removed, blotted and the weight recorded.

Compound | PT clotting time, fold prolongation (normal human plasma [1]) | PT, fold increase over baseline (rabbit plasma [2]) | APTT clotting time, fold prolongation (normal human plasma [3]) | APTT, fold increase over baseline (rabbit plasma [4]) | Patency (%) ([5]; 2 mg/kg IV bolus, animals with carotid blood flow ≥5 minutes) | Duration (Min.) of patency ([5]; 2 mg/kg IV bolus, maximum 40 minutes, mean ± sem) | Clot (mps) ([5]; 2 mg/kg IV bolus, thrombus weight, mean ± sem) | patency and clot size compared to the saline control (in words) ([5]; rabbit, in vivo)
VREVCSEQAEPGPCKALMKRWYFDVTEGKCAPFYYGGCYGNRNNFDTEEYCAAVCGSA (disulfide 5-55, 14-38, 30-51) [IV-32B] | 1.4 fold | 1.2 fold | 1.3 fold | 4.4 fold | – | – | – | –
VREVCSEQAEPGPCRALMKRWYFDVTEGKCAPFVYGGCYGNRNNFDTEEYCAAVCGSA (disulfide 5-55, 14-38, 30-51) [IV-54C] | 2.1 fold | 3.5 fold | 2.2 fold | 5.4 fold | – | – | – | –
CC[C@H](C)[C@@H]1NC(=O)[C@H](CC(C)C)NC(=O)[C@H](C)NC(=O)[C@H](CCCNC(=N)N)NC(=O)[C@@H]2CSSC[C@@H]3NC(=O)CNC(=O)CNC(=O)[C@H](Cc4ccc(O)cc4)NC(=O)[C@H](Cc4ccccc4)NC(=O)[C@H](Cc4ccccc4)NC(=O)[C@@H]4CCCN4C(=O)[C@H](C)NC(=O)[C@H](CSSC[C@H](NC(=O)[C@H](Cc4ccc(O)cc4)NC(=O)[C@H](CCC(=O)O)NC(=O)[C@H](CCC(=O)O)NC(=O)[C@H]([C@@H](C)O)NC(=O)[C@H](CC(=O)O)NC(=O)[C@H](Cc4ccccc4)NC(=O)[C@H](CC(N)=O)NC(=O)[C@H](CC(N)=O)NC(=O)[C@H](CCCNC(=N)N)NC(=O)[C@H](CC(N)=O)NC(=O)CNC(=O)[C@H](Cc4ccc(O)cc4)NC3=O)C(=O)N[C@@H](C)C(=O)N[C@@H](C)C(=O)N[C@@H](C(C)C)C(=O)N[C@H](C(=O)NCC(=O)N[C@@H](CO)C(=O)N[C@@H](C)C(=O)O)CSSC[C@H](NC(=O)[C@@H](NC(=O)[C@H](CCC(=O)O)NC(=O)[C@H](CCCNC(=N)N)NC(=O)[C@@H](N)C(C)C)C(C)C)C(=O)N[C@@H](CO)C(=O)N[C@@H](CCC(=O)O)C(=O)N[C@@H](CCC(N)=O)C(=O)N[C@@H](C)C(=O)N[C@@H](CCC(=O)O)C(=O)N3CCC[C@H]3C(=O)NCC(=O)N3CCC[C@H]3C(=O)N2)NC(=O)[C@H](CCCCN)NC(=O)CNC(=O)[C@H](CCC(=O)O)NC(=O)[C@H]([C@@H](C)O)NC(=O)[C@H](C(C)C)NC(=O)[C@H](CC(=O)O)NC(=O)[C@H](Cc2ccccc2)NC(=O)[C@H](Cc2ccc(O)cc2)NC(=O)[C@H](Cc2c[nH]c3ccccc23)NC(=O)[C@H](CCCNC(=N)N)NC(=O)[C@H](CC(C)C)NC1=O [TF7I-C] | – | – | – | – | 83% | 30.3 ± 6.7 min | 19.4 ± 14.6 mps | significantly prolonged patency and reduced clot size
